In PMC11130292:
These are yes or no findings as the source states them, for the method shown. In cells and extracts the contact can be indirect. These calls come from enrichment with a bait or labelling near it, and not all partners need be listed.

Amino acid sequences for entries named in this document (tags omitted).
UniProt Q8IYM9: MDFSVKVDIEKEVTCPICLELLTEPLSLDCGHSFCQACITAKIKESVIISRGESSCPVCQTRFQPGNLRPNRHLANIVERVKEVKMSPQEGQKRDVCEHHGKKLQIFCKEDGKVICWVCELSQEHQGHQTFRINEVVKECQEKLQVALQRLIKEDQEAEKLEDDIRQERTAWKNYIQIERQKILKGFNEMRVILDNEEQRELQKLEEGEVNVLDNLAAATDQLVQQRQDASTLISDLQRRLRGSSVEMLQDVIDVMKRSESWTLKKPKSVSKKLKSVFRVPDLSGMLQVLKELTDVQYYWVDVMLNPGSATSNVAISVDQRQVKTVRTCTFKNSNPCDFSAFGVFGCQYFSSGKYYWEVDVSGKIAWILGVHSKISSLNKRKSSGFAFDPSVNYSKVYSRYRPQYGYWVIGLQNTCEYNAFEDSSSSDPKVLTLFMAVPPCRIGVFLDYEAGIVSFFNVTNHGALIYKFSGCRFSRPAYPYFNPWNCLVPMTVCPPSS
UniProt Q93009: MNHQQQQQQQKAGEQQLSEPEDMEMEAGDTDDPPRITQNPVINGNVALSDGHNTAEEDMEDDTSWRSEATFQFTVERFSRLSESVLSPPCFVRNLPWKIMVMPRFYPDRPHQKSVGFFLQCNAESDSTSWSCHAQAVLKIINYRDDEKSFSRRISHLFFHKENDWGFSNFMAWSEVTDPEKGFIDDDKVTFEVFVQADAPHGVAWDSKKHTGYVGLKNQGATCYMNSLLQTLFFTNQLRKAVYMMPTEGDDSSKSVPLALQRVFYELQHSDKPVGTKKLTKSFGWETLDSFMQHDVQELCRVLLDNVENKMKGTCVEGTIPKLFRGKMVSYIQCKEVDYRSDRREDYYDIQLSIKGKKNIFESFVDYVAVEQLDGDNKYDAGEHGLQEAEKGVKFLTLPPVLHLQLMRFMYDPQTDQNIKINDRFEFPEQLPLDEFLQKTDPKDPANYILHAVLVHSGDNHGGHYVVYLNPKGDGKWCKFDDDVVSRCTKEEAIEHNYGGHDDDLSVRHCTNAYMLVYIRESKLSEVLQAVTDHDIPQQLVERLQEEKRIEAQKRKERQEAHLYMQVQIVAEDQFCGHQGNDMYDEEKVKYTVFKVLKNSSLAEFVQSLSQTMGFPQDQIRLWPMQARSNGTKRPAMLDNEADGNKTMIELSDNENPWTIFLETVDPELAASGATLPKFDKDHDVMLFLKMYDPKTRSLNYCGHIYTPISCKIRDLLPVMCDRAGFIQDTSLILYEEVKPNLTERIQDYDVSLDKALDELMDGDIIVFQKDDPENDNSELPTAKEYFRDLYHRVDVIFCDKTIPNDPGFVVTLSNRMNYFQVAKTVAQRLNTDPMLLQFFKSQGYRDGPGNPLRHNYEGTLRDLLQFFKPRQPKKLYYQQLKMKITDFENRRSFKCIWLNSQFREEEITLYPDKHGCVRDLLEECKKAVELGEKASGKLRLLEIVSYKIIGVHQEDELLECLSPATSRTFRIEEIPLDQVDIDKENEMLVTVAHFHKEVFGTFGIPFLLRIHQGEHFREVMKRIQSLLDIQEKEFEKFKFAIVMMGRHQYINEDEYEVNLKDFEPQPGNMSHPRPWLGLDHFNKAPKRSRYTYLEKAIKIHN
UniProt P19474: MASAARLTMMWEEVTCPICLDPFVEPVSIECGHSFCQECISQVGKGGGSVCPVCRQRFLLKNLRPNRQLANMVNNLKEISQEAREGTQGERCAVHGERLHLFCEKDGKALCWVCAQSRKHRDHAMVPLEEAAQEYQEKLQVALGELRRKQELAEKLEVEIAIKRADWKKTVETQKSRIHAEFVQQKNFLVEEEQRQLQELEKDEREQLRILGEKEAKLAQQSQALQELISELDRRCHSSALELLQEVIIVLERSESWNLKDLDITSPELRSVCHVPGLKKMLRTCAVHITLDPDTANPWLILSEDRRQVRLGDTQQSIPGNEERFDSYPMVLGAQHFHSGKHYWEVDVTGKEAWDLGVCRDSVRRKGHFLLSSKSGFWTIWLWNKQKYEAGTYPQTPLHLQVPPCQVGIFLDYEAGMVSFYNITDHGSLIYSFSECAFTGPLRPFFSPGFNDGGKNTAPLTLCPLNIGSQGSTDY

What was measured:
[1] = target: T1, IFRD1, bait of the immunoprecipitation-coupled mass spectrometry (IP-MS) (UniProt O00458); assay: affinity purification with mass spectrometry; immunoprecipitation-coupled mass spectrometry (IP-MS) against IFRD1
T1 sequence: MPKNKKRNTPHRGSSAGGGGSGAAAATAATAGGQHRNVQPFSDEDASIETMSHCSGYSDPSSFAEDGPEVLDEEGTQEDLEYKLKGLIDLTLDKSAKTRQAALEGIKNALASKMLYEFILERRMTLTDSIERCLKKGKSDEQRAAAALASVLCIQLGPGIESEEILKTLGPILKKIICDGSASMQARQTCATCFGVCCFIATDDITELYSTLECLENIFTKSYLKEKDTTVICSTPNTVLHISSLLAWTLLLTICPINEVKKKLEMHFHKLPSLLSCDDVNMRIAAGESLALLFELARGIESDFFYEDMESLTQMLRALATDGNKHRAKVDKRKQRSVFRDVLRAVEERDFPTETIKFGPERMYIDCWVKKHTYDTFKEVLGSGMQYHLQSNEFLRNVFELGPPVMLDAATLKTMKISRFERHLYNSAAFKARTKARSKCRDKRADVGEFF

Flag-BirA* tagged p62 = Flag-BirA* tagged p62 (UniProt Q13501); assay: proximity labelling; BioID2-p62 in PLC/PRF/5 cells, glutamine starvation 36 h, biotin (4 nM) for the last 24 h, Baf-A1 (400 nM) for 2 h; pull-down with streptavidin-conjugated beads

Substance | binding [1] | binding (Flag-BirA* tagged p62)
TRIM22, hit of the IFRD1 IP-MS (from UniProt Q8IYM9 1-498) | binds | –
USP7, hit of the IFRD1 IP-MS (from UniProt Q93009 1-1102) | binds | –
TRIM21, hit of the IFRD1 IP-MS (from UniProt P19474 1-475) | binds | –
histone H1.0 in PLC/PRF/5 cells (from UniProt P07305 1-194) | – | binds
